Results are given in words; binding and its absence hold for the method and conditions named. In cells and extracts the contact can be indirect. Some binding calls cover weakened binding; strength is not graded here.
Molecular target: signal transducer and activator of transcription 1 (human (endogenous in HL-60)) (UniProt P42224)
Assay: co-IP; IP/CoIP kit (Absin); endogenous proteins of dHL-60 cells untreated, treated with LPS (1ug/ml) for 6 h, pretreated with DASA-58 (20uM) 0.5 h before LPS, or treated with DASA-58 alone; antibodies against PKM2 (Cell Signaling Technology) and STAT1 (Abcam), IgG isotype control; which antibody precipitated is not stated

The chains behind the UniProt entries cited, without tags or fusion partners.
UniProt P42224: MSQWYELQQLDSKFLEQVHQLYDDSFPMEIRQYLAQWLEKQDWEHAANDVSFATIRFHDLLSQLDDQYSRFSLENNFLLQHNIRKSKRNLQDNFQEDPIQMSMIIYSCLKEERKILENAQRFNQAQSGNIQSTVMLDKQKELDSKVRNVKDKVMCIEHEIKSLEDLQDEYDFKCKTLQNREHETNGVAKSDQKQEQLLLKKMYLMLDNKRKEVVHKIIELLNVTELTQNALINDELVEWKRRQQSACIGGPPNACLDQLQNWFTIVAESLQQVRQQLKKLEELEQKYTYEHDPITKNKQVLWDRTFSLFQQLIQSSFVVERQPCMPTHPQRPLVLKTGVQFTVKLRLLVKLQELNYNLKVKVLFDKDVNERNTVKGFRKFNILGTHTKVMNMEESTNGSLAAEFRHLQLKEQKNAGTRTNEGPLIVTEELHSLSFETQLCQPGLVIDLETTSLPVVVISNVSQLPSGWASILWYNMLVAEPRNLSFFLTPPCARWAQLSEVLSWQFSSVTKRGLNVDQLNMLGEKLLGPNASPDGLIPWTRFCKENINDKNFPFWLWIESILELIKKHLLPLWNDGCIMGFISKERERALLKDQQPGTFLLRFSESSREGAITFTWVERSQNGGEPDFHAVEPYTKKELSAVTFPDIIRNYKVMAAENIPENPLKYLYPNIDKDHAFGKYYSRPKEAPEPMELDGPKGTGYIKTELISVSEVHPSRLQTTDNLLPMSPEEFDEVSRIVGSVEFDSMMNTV
UniProt P14618: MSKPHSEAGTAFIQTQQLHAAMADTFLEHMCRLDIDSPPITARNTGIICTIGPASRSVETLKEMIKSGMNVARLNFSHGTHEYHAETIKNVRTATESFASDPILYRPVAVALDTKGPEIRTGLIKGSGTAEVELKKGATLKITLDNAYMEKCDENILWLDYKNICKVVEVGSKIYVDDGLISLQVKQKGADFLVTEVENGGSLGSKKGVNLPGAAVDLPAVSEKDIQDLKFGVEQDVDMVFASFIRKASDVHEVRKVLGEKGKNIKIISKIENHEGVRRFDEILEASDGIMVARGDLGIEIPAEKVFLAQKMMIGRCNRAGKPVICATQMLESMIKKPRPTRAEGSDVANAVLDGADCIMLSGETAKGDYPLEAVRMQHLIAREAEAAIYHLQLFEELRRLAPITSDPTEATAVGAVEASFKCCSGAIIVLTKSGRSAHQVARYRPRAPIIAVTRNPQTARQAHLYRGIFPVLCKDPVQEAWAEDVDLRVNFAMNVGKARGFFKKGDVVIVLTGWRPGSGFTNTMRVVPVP

For “pyruvate kinase M2 (from UniProt P14618 1-531) (enzyme)”, the binding was “binds”.

From PMC10155438
